Measurements reported in PubChem BioAssay AID1053208 (Peter MacCallum Cancer Centre, 2014)
Here is one part, drawn at random, of about 17,000 reagents. 788 of all reagents (4.7%) count as active. 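Calls rest on z-score classes alone; an extra cut-off of viability at most 70% of control was not applied to them.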 A number with no mark means an inactive call. Not all columns of the deposit are shown.

Aim: 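Find knock-downs that sensitise mouse osteosarcoma cells to doxorubicin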 (primary screen)
System: mouse osteosarcoma cells, early-passage culture from an engineered mouse model of fibroblastic bone tumour
Knock-down reagent: siRNA pool against mouse genes, 40 nM
Time to read-out: about 120 h (48 h before drug, then 72 h with drug)
Conditions: doxorubicin 100 nM for 72 h, roughly 30-40% inhibitory dose
Measurement: 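Viability read as ATP luminescence after 72 h of 100 nM doxorubicin or none, duplicate wells averaged, scaled to non-targeting siRNA, then expressed as robust z-scores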
Reading the numbers: viability z-score with doxorubicin: higher = more viable cells under doxorubicin; viability z-score without drug: higher = more viable cells with knock-down alone
Hit rule: 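Called active if knock-down leaves viability unchanged without drug (z within -2 to 2) but lowers it with doxorubicin (z at or under -2)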

Tcf7 (transcription factor 7, T cell specific) scored combined z-score class high cell count without drug only; viability z-score with doxorubicin 0.34; viability z-score without drug 3.54.
Knock-down of P3h3 (prolyl 3-hydroxylase 3) resulted in: combined z-score class no change with or without drug; viability z-score with doxorubicin 0; viability z-score without drug 1.18.
For Fars2 (phenylalanine-tRNA synthetase 2, mitochondrial) the deposit lists combined z-score class no change with or without drug; viability z-score with doxorubicin -0.67; viability z-score without drug -0.67.
Against Zfyve26 (zinc finger, FYVE domain containing 26) the deposit lists combined z-score class no change with or without drug; viability z-score with doxorubicin -0.34; viability z-score without drug 0.51.
With knock-down of Esrrg (estrogen-related receptor gamma), the record shows combined z-score class no change with or without drug; viability z-score with doxorubicin -1.91; viability z-score without drug -0.84.
Against Set (SET nuclear proto-oncogene), the entry reads combined z-score class high cell count without drug only; viability z-score with doxorubicin 1.91; viability z-score without drug 2.7.
Depletion of Vps4a (vacuolar protein sorting 4A) gave: combined z-score class no change with or without drug; viability z-score with doxorubicin 1.35; viability z-score without drug 1.35.
With knock-down of Kcna5, the record shows combined z-score class no change with or without drug; viability z-score with doxorubicin 0; viability z-score without drug 0.67.
Il22 (interleukin 22) showed combined z-score class no change with or without drug; viability z-score with doxorubicin -1.8; viability z-score without drug -1.85.
For Spta1 (spectrin alpha, erythrocytic 1), the entry reads combined z-score class no change with or without drug; viability z-score with doxorubicin -0.22; viability z-score without drug -0.84.
For Ociad1 (OCIA domain containing 1), the values are combined z-score class no change with or without drug; viability z-score with doxorubicin -0.67; viability z-score without drug 0.17.
Srsf5 (serine and arginine-rich splicing factor 5) scored combined z-score class no change with or without drug; viability z-score with doxorubicin -0.67; viability z-score without drug -0.67.
1700010I14Rik (RIKEN cDNA 1700010I14 gene) scored combined z-score class no change with or without drug; viability z-score with doxorubicin -0.9; viability z-score without drug -0.84.
Knock-down of Fgf13 (fibroblast growth factor 13) gave: combined z-score class no change with or without drug; viability z-score with doxorubicin -1.24; viability z-score without drug -0.51.
For Trak2 (trafficking protein, kinesin binding 2), the entry reads combined z-score class no change with or without drug; viability z-score with doxorubicin 1.69; viability z-score without drug 0.51.
Against Zfp956 (zinc finger protein 956), the entry reads combined z-score class no change with or without drug; viability z-score with doxorubicin 0.9; viability z-score without drug 1.52.
For Pramel13 (PRAME like 13), the entry reads combined z-score class no change with or without drug; viability z-score with doxorubicin 0.9; viability z-score without drug -0.17.
Silencing of Gucy1a2 (guanylate cyclase 1, soluble, alpha 2) gave: combined z-score class no change with or without drug; viability z-score with doxorubicin 0.34; viability z-score without drug 0.34.
Against Etfbkmt, the values are combined z-score class no change with or without drug; viability z-score with doxorubicin 1.01; viability z-score without drug 1.85.
Depletion of Mcm3 (minichromosome maintenance complex component 3) resulted in: combined z-score class no change with or without drug; viability z-score with doxorubicin 1.12; viability z-score without drug 0.51.
Sowahb (sosondowah ankyrin repeat domain family member B) scored combined z-score class no change with or without drug; viability z-score with doxorubicin 0.45; viability z-score without drug 1.69.
Depletion of Fhip1b (FHF complex subunit HOOK interacting protein 1B) came out at: combined z-score class no change with or without drug; viability z-score with doxorubicin 0.56; viability z-score without drug 1.35.
Plk2 (polo like kinase 2) gave combined z-score class low cell count with doxorubicin only (active); viability z-score with doxorubicin -3.93; viability z-score without drug -1.52.
Against Grcc10 (gene rich cluster, C10 gene) the deposit lists combined z-score class no change with or without drug; viability z-score with doxorubicin 1.01; viability z-score without drug 1.01.
Depletion of D130060J02Rik (RIKEN cDNA D130060J02 gene) resulted in: combined z-score class no change with or without drug; viability z-score with doxorubicin -0.9; viability z-score without drug 0.84.
After knock-down of Zfp870 (zinc finger protein 870) the results were combined z-score class no change with or without drug; viability z-score with doxorubicin 0.67; viability z-score without drug 0.51.
Rab5if (RAB5 interacting factor) showed combined z-score class low cell count with doxorubicin only (active); viability z-score with doxorubicin -2.25; viability z-score without drug -0.84.
Depletion of Macrod1 (mono-ADP ribosylhydrolase 1) gave: combined z-score class no change with or without drug; viability z-score with doxorubicin 0; viability z-score without drug -0.17.
With knock-down of Azin1 (antizyme inhibitor 1) the results were combined z-score class no change with or without drug; viability z-score with doxorubicin 0.22; viability z-score without drug 0.51.
Pign (phosphatidylinositol glycan anchor biosynthesis, class N) gave combined z-score class no change with or without drug; viability z-score with doxorubicin 0.9; viability z-score without drug 1.18.
With knock-down of Atrnl1 (attractin like 1), the record shows combined z-score class no change with or without drug; viability z-score with doxorubicin 0.9; viability z-score without drug -0.84.
Against Cst8 (cystatin 8 (cystatin-related epididymal spermatogenic)), the entry reads combined z-score class no change with or without drug; viability z-score with doxorubicin 0.9; viability z-score without drug 0.84.
For Or6c210 (olfactory receptor family 6 subfamily C member 210) the deposit lists combined z-score class no change with or without drug; viability z-score with doxorubicin -0.67; viability z-score without drug -0.17.
Against Or52j3 (olfactory receptor family 52 subfamily J member 3) the deposit lists combined z-score class low cell count with and without drug; viability z-score with doxorubicin -2.02; viability z-score without drug -2.19.
Against Sun5 (Sad1 and UNC84 domain containing 5), the entry reads combined z-score class no change with or without drug; viability z-score with doxorubicin 0.67; viability z-score without drug -0.51.
Silencing of Pomp (proteasome maturation protein) came out at: combined z-score class low cell count without drug only; viability z-score with doxorubicin -1.12; viability z-score without drug -2.53.
